Values of other authors in patent US9738604B2, “Ethynylbenzene derivatives” (Duke University, priority 2010, dated 2017).
Values after ≈ are worked out from the molar mass of the structure shown. At least one structure is not confirmed: it was looked up by name or label, or the drawing left a doubt.

System: N. gonorrhoeae 35/02
Conditions: resistance profile of strain 35/02; cited from earlier work

C=CC1=C(C(=O)O)N2C(=O)[C@@H](NC(=O)/C(=N\OCC(=O)O)c3csc(N)n3)[C@H]2SC1 [cefixime]
MIC: 0.28 µg/mL (≈ 0.617 µM)
